{"source": "patent US20170080026A1", "about": "“METHOD AND COMPOUND FOR OPENING POTASSIUM CHANNELS OF MAMMAL VASCULAR SMOOTH MUSCLES IN A REMOTE CONTROL MANNER” (Tovaristvo Z Obmezhenou Vidpovidalnistu \"Nanomedtrast\", priority 2015, published 2017)", "system": "outgoing potassium current (IK) in rat thoracic aorta SM cells", "assay": "Whole-cell outgoing K+ current (IK) recording in isolated thoracic aorta smooth muscle cells", "assay_type": "cell-based", "conditions": "paxillin 500 nM, untreated SM cells, n=10; control 32±2", "method": "C, D show effects of potassium channel blockers (paxillin, 500 nM, and […] 10 mm) on the outgoing potassium current in smooth muscle cells of thoracic aorta not exposed to Au NPs (C) and exposed to Au NPs (D). Currents caused by single step excitations with an amplitude of 10 mV and 300 ms increments within −100 and +70 mV of outgoing potential at −60 mV.\nCurrents in each cell (except for leakage current) were converted into specific […], averaged and depicted versus membrane potential (mV). The data thus obtained were brought in consistency using the standard Boltzmann function with average parameters described herein. The resulting current-voltage characteristics (curves I-V) were obtained by measuring current at the end of an impulse. The data represent mean values of ±SEM (n=8).\nFor the purposes of the study, smooth muscle cells isolated from rat thoracic aorta using collagenase and pronase were taken. Rats were anesthetised with ketamine (37.5 mg/kg body weight, intraperitoneally) and xylazine (10 mg/kg body weight, intraperitoneally), and thoracic aorta about 1.0 . . . 1.5 cm long was removed and denuded to make it free from connective tissue. Aorta was cut into small pieces (1.5×1.5 mm) in the cooled low Ca^2+ ion content solution comprising (in mM): NaCl 140, KCl 6, MgCl2 3, D-glucose 10, HEPES 10 (pH 7.4) for 15 minutes. […]", "note": "At least one compound was matched to its structure with a doubt left."}
{"smiles": "CC(C)(O)[C@H]1O[C@H]2CC[C@@]3(C)[C@@](O)(CC[C@H]4Cc5c([nH]c6ccccc56)[C@@]43C)C2=CC1=O", "note": "[Paxillin, paxillin]", "values": [{"measurement": "outgoing current", "result": "±6 1 pA/pF"}]}
